# Laboratory results as given in PubChem BioAssay (NCATS).
# This list was built around the results that the source calls inconclusive (neither active nor inactive); the mix of calls is not that of the screen. Entries that show only a call come without a potency. Potencies of inconclusive entries are doubtful fits and often do not repeat. Calls of active or inactive are those of the source. Calls follow the shape of the dose curve; as a rule, active = well fitted curve in the direction sought with a large enough effect; inconclusive = small, poorly fitted or top-dose-only effect, or another doubt; inactive = no such curve, though single readings can be large; an effect the other way counts as inactive or inconclusive.
# Test system: NanoLuc luciferase (engineered Oplophorus gracilirostris luciferase)
# Test: Biochemical coelenterazine-based NLuc counterscreen for small molecule modulators of PMP22 gene expression - Km assay (AID 1508639)
# Conditions: secreted NLuc enzyme, coelenterazine luminescence, Km conditions; series mostly up to 57.5 µM
# Method in brief: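 Compounds pre-incubate 5 min with coelenterazine (15 uM, PBS pH 7.4, Triton X and ascorbate) before NLuc-containing S16 conditioned medium is introduced; light output is imaged after 10 min protected from light at ambient temperature.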
# Potency is read from the fitted curve at half-maximal effect.
row,Compound,Potency
1,COCCNc1oc(-c2ccc(COc3ccc(OC)cc3)o2)nc1C#N,inactive
2,O=C(CSc1nc2ccsc2c(=O)n1-c1ccc(Br)cc1)NCc1ccc(Cl)cc1,inactive
3,CCCCCOc1ccccc1CN1C(=O)C(=O)c2cc(C)ccc21,"inconclusive: 27.3 µM [inhibitor, partial curve, poor fit]"
4,CCOc1ccc(-c2c(C)nn3c(C)c(C(=O)NCC(C)c4ccccc4)cnc23)cc1OCC (stereo unspecified),"inconclusive: 30.6 µM [inhibitor, single point]"
5,COc1ccc(C2=C(C)C(=NCCCN3CCN(c4cc(C)ccc4C)CC3)NS2(=O)=O)cc1,inactive
6,COc1cccc(NC(=O)N(Cc2c[nH]c3ccccc23)C2CCCCCC2)c1,"inconclusive: 6.85 µM [inhibitor, full curve]"
7,CCCc1oc2ccc(NS(=O)(=O)c3ccc(OC)cc3)cc2c1C(=O)OCC,"inconclusive: 30.6 µM [inhibitor, single point]"
8,CCCSc1ncc(Cl)c(C(=O)Nc2ccc(S(=O)(=O)N3CCCCC3C)cc2)n1 (stereo unspecified),inactive

# Test system: not listed separately
# Test: Cell viability qHTS assay in S16 Pmp22-F2sN cells - Confirmatory screen (AID 1508641)
# Conditions: S16 Schwann cells viability, CellTiter-Glo ATP luminescence, 24 h; series mostly up to 57.5 µM
# Method in brief: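 Cells (500-1,000 per well) in phenol red-free DMEM with 10% heat-inactivated FBS were exposed to library compounds for 24 h at 37C, 5% CO2. CellTiter-Glo was added, and after 15 min at room temperature luminescence was imaged by CCD camera.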
row,Compound,Potency
1,O=C(Cn1cc(C(=O)c2ccco2)c2ccccc21)Nc1ccccc1C(F)(F)F,inactive
2,COCCNC(=O)c1ccc(-n2c(-c3ccccc3)cc3c2CCC(C)C3)cc1 (stereo unspecified),inactive
3,COCCNc1oc(-c2ccc(COc3ccc(OC)cc3)o2)nc1C#N,"inconclusive: 0.0011 µM [rising, full curve, poor fit]"
